Measurements as given in article PMC5880945, “D-Arg^0-Bradykinin-Arg-Arg, a Latent Vasoactive Bradykinin B2 Receptor Agonist Metabolically Activated by Carboxypeptidases” (Frontiers in Pharmacology, 2018).
Results are given in words; binding and its absence hold for the method and conditions named. Some entries that bind do so weakly or less than the wild type. Sequences can lack the tags named with a protein.

Amino acid sequences for entries named in this document (tags omitted). A change or cut given only in a name is not applied to a line headed by its entry.
UniProt P01042: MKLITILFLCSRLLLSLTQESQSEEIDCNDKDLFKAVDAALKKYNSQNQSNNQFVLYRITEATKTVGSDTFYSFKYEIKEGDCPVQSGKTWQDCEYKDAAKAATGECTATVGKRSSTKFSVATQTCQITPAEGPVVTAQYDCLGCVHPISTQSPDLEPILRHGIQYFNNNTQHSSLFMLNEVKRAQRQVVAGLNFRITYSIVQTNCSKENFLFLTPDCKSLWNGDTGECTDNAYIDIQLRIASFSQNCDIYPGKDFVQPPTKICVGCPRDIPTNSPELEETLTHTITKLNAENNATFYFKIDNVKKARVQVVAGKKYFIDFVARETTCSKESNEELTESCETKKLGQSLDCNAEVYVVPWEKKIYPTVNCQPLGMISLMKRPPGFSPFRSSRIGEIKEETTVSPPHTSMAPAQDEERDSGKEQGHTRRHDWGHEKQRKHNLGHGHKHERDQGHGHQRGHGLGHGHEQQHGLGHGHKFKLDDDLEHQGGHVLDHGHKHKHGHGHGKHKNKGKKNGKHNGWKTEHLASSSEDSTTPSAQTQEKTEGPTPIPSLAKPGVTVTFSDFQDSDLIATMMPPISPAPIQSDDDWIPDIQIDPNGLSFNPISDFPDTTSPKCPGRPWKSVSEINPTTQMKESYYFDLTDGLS

Target: T1, myc-tagged rat B2R construction (rat, UniProt P25023 1-396)
T1 construct: bradykinin B2 receptor, rat; also called rat myc-B2R; rat recombinant myc-B2R; source: HEK 293 cells stably expressing the construction, adherent intact cells
T1 sequence (looked up): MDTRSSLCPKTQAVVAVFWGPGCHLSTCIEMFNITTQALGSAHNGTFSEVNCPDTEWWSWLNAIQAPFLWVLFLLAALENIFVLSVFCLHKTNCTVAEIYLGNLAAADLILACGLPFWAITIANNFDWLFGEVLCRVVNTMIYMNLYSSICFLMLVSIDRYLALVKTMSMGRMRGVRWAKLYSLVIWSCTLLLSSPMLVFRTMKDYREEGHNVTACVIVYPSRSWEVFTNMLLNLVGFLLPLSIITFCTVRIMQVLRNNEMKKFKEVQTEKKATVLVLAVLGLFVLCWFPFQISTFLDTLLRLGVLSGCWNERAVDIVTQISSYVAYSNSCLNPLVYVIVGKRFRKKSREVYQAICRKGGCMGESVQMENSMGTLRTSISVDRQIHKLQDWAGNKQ
Assay: radioligand binding; competition of the binding of 3 nM [^3H]BK to adherent intact HEK 293 cells stably expressing myc-tagged rat B2R by unlabeled peptides; 0°C; peptidase inhibitors including captopril and PMSF; one-site competition fit; only the binder purified

## [^3H]bradykinin (from UniProt P01042 381-389) (peptide)
  binding: binds
